# From the supplement of paper PMC10338343
# ± gives the standard deviation. Only a part is listed here, and it is no random draw. Many of these values have a large error.
# Test system: MIWI (PIWIL1) piRISC loaded with piRNA #1 (30 nt)
# Assay: pre-steady-state target cleavage rate (min^-1); MIWI and MILI are mouse PIWI proteins and EfPiwi is from a freshwater sponge; tags in brackets are library labels; higher = faster piRNA-guided slicing of the target
# Conditions: guide: piRNA #1 5'p-UGAGGUAGUAGGUUGUAUAGUAUCCAGAGG; auxiliary factor: 500 nM mouse GTSF1
# In short: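 Active affinity-purified piRISC (1 nM) loaded with one synthetic guide was mixed with a transcribed, DNA-blocked target RNA library (0.1 nM), with or without 500 nM GTSF1 partner protein, in HEPES–potassium acetate buffer at 33 °C for 0–8 or 0–960 min. Uncleaved targets were sequenced, normalised to depth and to weakly complementary targets, and pooled across three trials, with k3 capped at 0.0001 min^-1. The pre-steady-state cleavage rate was determined with a burst-and-steady-state fit.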
row,Sequence,pre-steady-state target cleavage rate
1,GGUCUGGAUAGUAUACAACCUACUACCUGA,0.248 ± 0.041
2,GGAGACCUAUGAUAACAACCUACUACCUCC [g2:g16:cont:t1C],0.00111 ± 0.0037
3,CCUCUGGAUACUAUUCAACCUACUAGCUCA,1.37 ± 0.12
4,GGAGACCUAACUUACAACCUACUACCUCA,0.00932 ± 0.008
5,GGAGACGAUACUAUACAACAUACUACCUCA,1.16 ± 0.077
6,CCUCUCGAUACUAAACAACCUACUACCUCA,2.13 ± 0.14
7,GGAGACCUAUGAUAUGUAGCUACUACCACA,0.000663 ± 0.0084
8,GAUCUGGAUACUAUACAACCUACUACCUCA,1.91 ± 0.097
9,GCUCUCGAUACUAAACAACCUACUACCUCA,1.81 ± 0.12
10,GGAGACCUAUGAAUACUACCUACUACCUCA,0.000181 ± 0.015
11,GCUCUCGAUACAAUACAACCUACUACCUCA,2.07 ± 0.12
12,GGAGACCUAUGUAUAAAACCUACUACCUCA,0.00207 ± 0.0025
13,GGAGACCUAUGAAUACAUCCUUCUACCUCA,0.000918 ± 0.0057
14,GCUCUGGAUACUAUACAACCAUGAUGGAGA [g11:g29:cont:t1A],0.00246 ± 0.0052
15,CCUCAGGAUACUAUACAACCUACUACCACA,2.43 ± 0.17
16,GCUCUGGAAACUAUUCAACCUACUACCUCA,1.68 ± 0.12

# A few values from the list.
# Entry for GAUCUGGAUACUAUACAACCUACUACCUCA under pre-steady-state target cleavage rate: 1.91 ± 0.097
# Entry for GCUCUGGAAACUAUUCAACCUACUACCUCA under pre-steady-state target cleavage rate: 1.68 ± 0.12
